Some test systems named below: KCNIP1 (human); KCNIP2 (human); KCNK7 (human); KCNS2 (human); KEL (human); KHK (human); KIAA0174 (human); KIAA0513 (human).
What all share (assay): protein microarray (ProtoArray v5.0), streptavidin-Alexa Fluor 647
Common to all, as to conditions: 3'-biotin; 20 mM Tris (pH 7.5), 5 mM MgCl2, 100 mM KCl, 0.1% Tween-20, A/T-rich and random oligonucleotide blockers; temperature not stated; high values mean tight binding

The subject of assay [1] is Junction plakoglobin (human).
For assay [2], the system named is Junctional adhesion molecule C (human).

Values joined by “and” are separate entries in the source; they are usually repeats but may differ in a detail not shown here. Equal values may be shown once. This is one part of the list.

In the case of “GGTGACAGGGGTATGGGGAGGGG [G4-2 biotinylated (Ct1)]”, the binding signal is -0.378 z-score in [1]; -0.386 z-score in assay [2]; -0.397 z-score in the assay on KCNIP1 (human); -0.4 z-score and -0.382 z-score and -0.399 z-score in the assay on KCNIP2 (human); -0.382 z-score with KCNK7 (human); -0.377 z-score in the assay on KCNS2 (human). Also, the binding signal was -0.359 z-score with KEL (human), -0.4 z-score with KHK (human), -0.401 z-score in the assay with KIAA0174 (human) and -0.37 z-score in the assay on KIAA0513 (human).
